Here are results for four molecules from PMC4427335.

Protein sequences, listed by entry. Tags and fused reporters are not part of them. Lines headed by an entry give the natural chain unless they say otherwise; changes in a name come on top.
UniProt P45481: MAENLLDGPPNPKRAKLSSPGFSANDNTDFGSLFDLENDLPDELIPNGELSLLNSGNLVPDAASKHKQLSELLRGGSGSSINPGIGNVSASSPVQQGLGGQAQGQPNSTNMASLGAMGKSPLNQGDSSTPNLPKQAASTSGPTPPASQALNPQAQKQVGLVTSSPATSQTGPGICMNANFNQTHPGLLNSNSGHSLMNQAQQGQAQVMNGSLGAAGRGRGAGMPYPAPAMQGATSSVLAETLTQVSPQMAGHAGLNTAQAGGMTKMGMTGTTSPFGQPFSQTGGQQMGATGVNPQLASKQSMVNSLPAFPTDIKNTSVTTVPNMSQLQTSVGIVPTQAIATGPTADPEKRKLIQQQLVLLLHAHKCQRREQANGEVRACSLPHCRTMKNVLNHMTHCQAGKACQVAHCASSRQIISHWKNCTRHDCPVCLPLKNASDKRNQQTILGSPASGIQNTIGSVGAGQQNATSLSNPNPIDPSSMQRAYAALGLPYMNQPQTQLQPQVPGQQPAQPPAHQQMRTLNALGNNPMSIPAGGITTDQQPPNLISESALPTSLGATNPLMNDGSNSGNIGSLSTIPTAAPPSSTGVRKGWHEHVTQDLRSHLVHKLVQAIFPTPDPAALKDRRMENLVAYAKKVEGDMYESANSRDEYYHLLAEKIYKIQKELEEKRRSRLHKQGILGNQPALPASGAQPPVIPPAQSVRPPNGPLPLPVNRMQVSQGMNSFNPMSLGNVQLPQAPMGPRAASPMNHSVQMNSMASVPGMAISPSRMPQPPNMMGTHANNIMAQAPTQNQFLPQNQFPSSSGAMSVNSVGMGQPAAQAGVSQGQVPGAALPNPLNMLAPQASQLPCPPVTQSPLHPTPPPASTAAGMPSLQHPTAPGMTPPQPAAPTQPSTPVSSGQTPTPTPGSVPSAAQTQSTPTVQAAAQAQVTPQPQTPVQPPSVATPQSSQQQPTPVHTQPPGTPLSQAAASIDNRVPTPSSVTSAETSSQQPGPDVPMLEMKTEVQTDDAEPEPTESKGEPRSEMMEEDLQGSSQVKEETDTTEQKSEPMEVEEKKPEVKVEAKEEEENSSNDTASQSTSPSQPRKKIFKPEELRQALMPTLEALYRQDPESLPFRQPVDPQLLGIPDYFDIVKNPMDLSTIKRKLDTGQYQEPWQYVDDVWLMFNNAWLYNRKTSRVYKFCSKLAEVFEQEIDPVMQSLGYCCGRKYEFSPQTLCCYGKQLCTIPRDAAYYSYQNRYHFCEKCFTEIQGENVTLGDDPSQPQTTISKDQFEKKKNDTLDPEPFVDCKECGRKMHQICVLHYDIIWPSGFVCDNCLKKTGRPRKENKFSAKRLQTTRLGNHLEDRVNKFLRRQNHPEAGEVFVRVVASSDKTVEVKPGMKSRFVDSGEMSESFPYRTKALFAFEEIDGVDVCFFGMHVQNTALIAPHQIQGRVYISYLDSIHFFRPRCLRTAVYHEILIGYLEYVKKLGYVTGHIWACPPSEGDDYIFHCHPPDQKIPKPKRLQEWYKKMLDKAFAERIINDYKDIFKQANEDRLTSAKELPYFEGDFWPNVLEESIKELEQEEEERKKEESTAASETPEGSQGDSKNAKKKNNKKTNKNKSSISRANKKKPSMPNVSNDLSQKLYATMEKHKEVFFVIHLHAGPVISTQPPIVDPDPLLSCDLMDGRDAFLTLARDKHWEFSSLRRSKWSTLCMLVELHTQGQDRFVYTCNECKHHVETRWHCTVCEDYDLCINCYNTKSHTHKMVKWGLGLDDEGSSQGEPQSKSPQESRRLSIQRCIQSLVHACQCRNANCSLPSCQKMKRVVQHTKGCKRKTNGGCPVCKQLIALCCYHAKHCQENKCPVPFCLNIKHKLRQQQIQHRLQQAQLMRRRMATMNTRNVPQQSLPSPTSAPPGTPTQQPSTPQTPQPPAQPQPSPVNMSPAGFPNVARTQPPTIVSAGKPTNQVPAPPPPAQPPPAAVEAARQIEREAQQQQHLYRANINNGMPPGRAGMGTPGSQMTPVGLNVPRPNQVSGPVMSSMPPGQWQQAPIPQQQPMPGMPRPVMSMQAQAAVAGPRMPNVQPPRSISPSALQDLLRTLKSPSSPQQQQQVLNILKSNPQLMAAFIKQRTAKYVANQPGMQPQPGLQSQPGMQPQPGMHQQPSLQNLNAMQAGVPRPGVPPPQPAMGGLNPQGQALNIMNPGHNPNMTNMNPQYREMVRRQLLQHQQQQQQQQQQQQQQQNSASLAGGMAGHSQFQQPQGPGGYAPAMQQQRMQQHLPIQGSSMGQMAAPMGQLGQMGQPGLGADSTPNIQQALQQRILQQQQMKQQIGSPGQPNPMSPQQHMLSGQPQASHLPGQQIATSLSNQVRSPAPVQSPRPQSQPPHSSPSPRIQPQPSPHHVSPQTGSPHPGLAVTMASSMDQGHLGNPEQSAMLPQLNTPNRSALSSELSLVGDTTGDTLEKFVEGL
UniProt B2RWS6: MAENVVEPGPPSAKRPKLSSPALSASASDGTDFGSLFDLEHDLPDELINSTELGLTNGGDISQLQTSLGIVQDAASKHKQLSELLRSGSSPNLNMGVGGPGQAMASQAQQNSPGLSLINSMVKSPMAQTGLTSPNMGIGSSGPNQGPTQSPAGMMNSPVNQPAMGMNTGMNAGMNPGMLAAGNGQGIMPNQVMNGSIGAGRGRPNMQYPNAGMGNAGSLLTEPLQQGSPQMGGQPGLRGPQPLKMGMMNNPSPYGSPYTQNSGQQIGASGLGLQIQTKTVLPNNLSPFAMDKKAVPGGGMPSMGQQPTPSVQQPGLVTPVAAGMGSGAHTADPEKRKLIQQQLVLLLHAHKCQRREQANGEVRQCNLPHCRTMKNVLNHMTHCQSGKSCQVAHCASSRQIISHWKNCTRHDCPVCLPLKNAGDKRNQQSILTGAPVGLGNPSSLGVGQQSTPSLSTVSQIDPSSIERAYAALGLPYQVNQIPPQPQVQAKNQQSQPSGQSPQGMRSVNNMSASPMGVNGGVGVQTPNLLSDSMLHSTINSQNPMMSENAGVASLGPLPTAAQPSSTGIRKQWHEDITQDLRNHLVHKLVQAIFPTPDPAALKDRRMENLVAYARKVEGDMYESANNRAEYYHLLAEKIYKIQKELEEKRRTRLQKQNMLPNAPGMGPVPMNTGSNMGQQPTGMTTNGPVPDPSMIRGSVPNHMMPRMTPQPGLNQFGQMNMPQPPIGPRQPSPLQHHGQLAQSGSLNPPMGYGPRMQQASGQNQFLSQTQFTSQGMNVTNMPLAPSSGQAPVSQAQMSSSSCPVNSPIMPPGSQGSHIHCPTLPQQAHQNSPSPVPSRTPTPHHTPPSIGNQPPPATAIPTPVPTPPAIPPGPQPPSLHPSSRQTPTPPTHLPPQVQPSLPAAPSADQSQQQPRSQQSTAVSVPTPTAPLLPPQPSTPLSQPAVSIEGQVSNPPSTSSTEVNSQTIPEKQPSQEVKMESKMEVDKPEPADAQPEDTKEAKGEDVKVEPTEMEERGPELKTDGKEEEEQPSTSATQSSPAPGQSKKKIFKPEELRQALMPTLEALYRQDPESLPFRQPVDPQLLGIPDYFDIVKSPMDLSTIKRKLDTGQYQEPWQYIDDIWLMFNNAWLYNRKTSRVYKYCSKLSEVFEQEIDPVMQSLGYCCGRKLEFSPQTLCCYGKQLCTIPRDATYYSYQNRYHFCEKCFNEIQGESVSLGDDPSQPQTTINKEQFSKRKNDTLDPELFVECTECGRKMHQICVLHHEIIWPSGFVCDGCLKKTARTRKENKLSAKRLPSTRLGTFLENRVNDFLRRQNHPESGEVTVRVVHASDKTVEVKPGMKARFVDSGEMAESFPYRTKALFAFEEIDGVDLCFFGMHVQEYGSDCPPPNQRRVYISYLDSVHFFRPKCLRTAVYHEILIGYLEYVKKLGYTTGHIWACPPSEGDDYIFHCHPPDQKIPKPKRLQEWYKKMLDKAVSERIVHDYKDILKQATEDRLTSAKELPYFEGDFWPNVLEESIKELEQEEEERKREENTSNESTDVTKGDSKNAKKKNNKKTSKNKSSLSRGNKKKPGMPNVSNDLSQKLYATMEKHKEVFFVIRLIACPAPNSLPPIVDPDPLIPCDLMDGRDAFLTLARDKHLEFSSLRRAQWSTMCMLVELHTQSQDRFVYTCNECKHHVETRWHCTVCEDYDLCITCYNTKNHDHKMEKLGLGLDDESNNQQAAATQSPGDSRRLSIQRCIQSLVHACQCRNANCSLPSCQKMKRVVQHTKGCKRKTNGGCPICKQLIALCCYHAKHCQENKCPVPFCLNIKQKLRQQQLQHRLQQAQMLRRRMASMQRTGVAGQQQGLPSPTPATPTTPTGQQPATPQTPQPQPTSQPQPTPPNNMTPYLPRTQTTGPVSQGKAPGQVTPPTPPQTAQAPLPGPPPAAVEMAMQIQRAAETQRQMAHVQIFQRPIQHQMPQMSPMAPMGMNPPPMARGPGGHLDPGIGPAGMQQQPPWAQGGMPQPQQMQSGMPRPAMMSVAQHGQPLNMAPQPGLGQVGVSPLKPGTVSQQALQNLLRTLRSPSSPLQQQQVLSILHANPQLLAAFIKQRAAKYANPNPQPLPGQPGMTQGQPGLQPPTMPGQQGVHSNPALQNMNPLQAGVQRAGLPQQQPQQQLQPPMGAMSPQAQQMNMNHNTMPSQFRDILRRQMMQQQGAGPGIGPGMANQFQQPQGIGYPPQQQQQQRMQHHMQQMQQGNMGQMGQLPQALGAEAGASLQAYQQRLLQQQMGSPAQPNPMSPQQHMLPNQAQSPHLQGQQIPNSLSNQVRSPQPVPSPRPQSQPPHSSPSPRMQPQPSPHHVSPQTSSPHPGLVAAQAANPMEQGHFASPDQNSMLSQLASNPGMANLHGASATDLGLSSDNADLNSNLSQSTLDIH
UniProt P62196: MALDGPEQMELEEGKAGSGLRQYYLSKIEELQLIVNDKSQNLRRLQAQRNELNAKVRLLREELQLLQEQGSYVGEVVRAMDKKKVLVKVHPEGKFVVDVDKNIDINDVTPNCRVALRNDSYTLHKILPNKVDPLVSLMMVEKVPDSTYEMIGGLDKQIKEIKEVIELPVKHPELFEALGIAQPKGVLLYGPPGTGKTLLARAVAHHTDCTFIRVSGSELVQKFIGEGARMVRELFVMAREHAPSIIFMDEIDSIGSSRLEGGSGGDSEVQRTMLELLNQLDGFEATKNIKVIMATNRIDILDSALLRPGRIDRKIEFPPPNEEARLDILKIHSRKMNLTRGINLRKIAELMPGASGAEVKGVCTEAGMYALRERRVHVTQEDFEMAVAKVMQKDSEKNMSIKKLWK

One assay deals with T1, Δ2ΔFosB (UniProt P13346).
T1 sequence: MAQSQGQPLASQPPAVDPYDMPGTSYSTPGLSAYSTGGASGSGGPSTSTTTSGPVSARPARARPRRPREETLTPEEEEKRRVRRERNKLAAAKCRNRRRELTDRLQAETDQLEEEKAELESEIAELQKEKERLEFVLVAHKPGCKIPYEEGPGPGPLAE
Nature of the assay: two-hybrid; MaV203 yeast; bait Δ2ΔFosB in pDBLeu, prey mouse brain library in pPC86; SC-medium lacking leucine, tryptophan and histidine with 10 mM 3-aminotriazole; reporters His3, Ura3, LacZ; positive clones retested by retransformation.

Assay [1] has as its target CBP (CREB binding protein), in Neuro2A cells (mouse (endogenous in Neuro2A)) (UniProt P45481). Nature of the assay: co-IP; Neuro2A cells transfected with MYC-tagged ΔFosB forms or FLAG-tagged PSMC5 forms; cell extracts immunoprecipitated with anti-CBP or anti-p300 antibody (endogenous CBP, p300); Western blot with anti-MYC or anti-FLAG. On the technique in general: Immunoblotting shows a protein as a band on a membrane.

Assay [2] deals with p300, in Neuro2A cells (mouse (endogenous in Neuro2A)) (UniProt B2RWS6). Described as above.
The next assay concerns the target FLAG-tagged PSMC5 (UniProt P62196). Nature of the assay: co-IP; Neuro 2A cells co-transfected with ΔFosB or ΔFosB-LZM and FLAG-tagged PSMC5 or its mutants; lysed in RIPA buffer two days later; immunoprecipitation with anti-FLAG (nonimmune IgG as control), Protein G beads, 3 hr at 4°C; Western blot with anti-FosB/ΔFosB.
The target in assay [3] is PSMC5-Δcoiled-coil domain (UniProt P62196). The assay is described as above.

No constants are given. Whether binding was seen depends on the method and setting. For some assays here: Binding can be weak; no strength is given. For some assays here: Binding seen in cells or lysates may run through a third protein.

As for Ankyrin repeat domain 35 (mouse), in the assay with Δ2ΔFosB, the binding entry is given as “binds”.

As for “MYC-tagged ΔFosB-LZM (from UniProt P13346-2)”, the binding entry in assay [1] and in assay [2] was “no binding” each time.

As to ΔFosB-LZM (from UniProt P13346-2), the binding entry in the assay with FLAG-tagged PSMC5 is “no binding”.

B1: ΔFosB (pcDNA3.1-ΔFosB) (protein, UniProt P13346-2 1-237)
chain: MFQAFPGDYDSGSRCSSSPSAESQYLSSVDSFGSPPTAAASQECAGLGEMPGSFVPTVTAITTSQDLQWLVQPTLISSMAQSQGQPLASQPPAVDPYDMPGTSYSTPGLSAYSTGGASGSGGPSTSTTTSGPVSARPARARPRRPREETLTPEEEEKRRVRRERNKLAAAKCRNRRRELTDRLQAETDQLEEEKAELESEIAELQKEKERLEFVLVAHKPGCKIPYEEGPGPGPLAE
Take B1: the binding entry in assay [3] is “no binding”.
